Taken from: PubChem BioAssay AID652272 (Drosophila RNAi Screening Center, 2013)
In all, the deposit lists about 21,000 reagents; this is a random part of those with a known target gene and a result. In the full data, 503 (2.4%) are marked active. 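Raw plate light values, not normalised; calls rest on replicate z-scores that were not deposited; hits include reporter decreases as well as increases.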 Unmarked entries are inactive. A plus sign joins genes that one reagent is predicted to hit. Reagent sequences are not shown. Not given: the amount of reagent, the time to read-out.

Aim: 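Genome-wide knock-down search for components of Hedgehog signalling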 (primary screen)
Cells: Drosophila clone 8 (Cl8) cells
Reagent: long dsRNA against Drosophila genes
Detection: 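Plate reader light from a firefly reporter under a ptc promoter fragment that responds to Hedgehog, with Renilla light as transfection reference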
Direction: firefly Hh reporter signal: higher = more ptc reporter light; Renilla reference signal: higher = more Renilla control light
Active means: 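Called a hit if the two-replicate mean z-score lies below -2 or above +3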
Meaning of the calls: active = hit: reporter lowered or raised; inactive = not a hit

Jheh1 (GeneID 251984) [DRSC06529] gave firefly Hh reporter signal, replicate 1 = 96905; firefly Hh reporter signal, replicate 2 = 66417; Renilla reference signal, replicate 1 = 3890; Renilla reference signal, replicate 2 = 2473.
After knock-down of LysP (GeneID 38129) [DRSC08676], the screen gave firefly Hh reporter signal, replicate 1 = 48170; firefly Hh reporter signal, replicate 2 = 39968; Renilla reference signal, replicate 1 = 2006; Renilla reference signal, replicate 2 = 3136.
Against Zwilch (GeneID 59247) [DRSC15376], the values are firefly Hh reporter signal, replicate 1 = 1.01e5; firefly Hh reporter signal, replicate 2 = 1.22e5; Renilla reference signal, replicate 1 = 3672; Renilla reference signal, replicate 2 = 3564.
With knock-down of wun (GeneID 35966) [DRSC07719] the results were firefly Hh reporter signal, replicate 1 = 89344; firefly Hh reporter signal, replicate 2 = 53430; Renilla reference signal, replicate 1 = 3645; Renilla reference signal, replicate 2 = 2224.
Against Cht7 + tRNA:Cys-GCA-1-4 + tRNA:Lys-CTT-1-13 [DRSC08021], the values are firefly Hh reporter signal, replicate 1 = 7.99e5; firefly Hh reporter signal, replicate 2 = 1.77e5; firefly Hh reporter signal, replicate 3 = 1.45e5; Renilla reference signal, replicate 1 = 5558; Renilla reference signal, replicate 2 = 5362.
CG15482 (GeneID 34717) [DRSC02492] showed firefly Hh reporter signal, replicate 1 = 1.22e5; firefly Hh reporter signal, replicate 2 = 57750; Renilla reference signal, replicate 1 = 3556; Renilla reference signal, replicate 2 = 4683.
Depletion of EndoGI (GeneID 34953) [DRSC01964] gave: firefly Hh reporter signal, replicate 1 = 1.05e5; firefly Hh reporter signal, replicate 2 = 92972; Renilla reference signal, replicate 1 = 2726; Renilla reference signal, replicate 2 = 7090.
Silencing of CG13748 (GeneID 35896) [DRSC06419] gave: firefly Hh reporter signal, replicate 1 = 76016; firefly Hh reporter signal, replicate 2 = 37430; Renilla reference signal, replicate 1 = 1661; Renilla reference signal, replicate 2 = 3224.

Entries above whose target name starts with C or c (3):
Cht7 + tRNA:Cys-GCA-1-4 + tRNA:Lys-CTT-1-13 [DRSC08021] → firefly Hh reporter signal, replicate 1: 7.99e5; firefly Hh reporter signal, replicate 2: 1.77e5; firefly Hh reporter signal, replicate 3: 1.45e5; Renilla reference signal, replicate 1: 5558; Renilla reference signal, replicate 2: 5362
CG15482 (GeneID 34717) [DRSC02492] → firefly Hh reporter signal, replicate 1: 1.22e5; firefly Hh reporter signal, replicate 2: 57750; Renilla reference signal, replicate 1: 3556; Renilla reference signal, replicate 2: 4683
CG13748 (GeneID 35896) [DRSC06419] → firefly Hh reporter signal, replicate 1: 76016; firefly Hh reporter signal, replicate 2: 37430; Renilla reference signal, replicate 1: 1661; Renilla reference signal, replicate 2: 3224

Next records follow.
sturkopf (GeneID 38150) [DRSC08637] scored firefly Hh reporter signal, replicate 1 = 85650; firefly Hh reporter signal, replicate 2 = 62482; Renilla reference signal, replicate 1 = 4193; Renilla reference signal, replicate 2 = 2539.
Knock-down of CG7381 (GeneID 41589) [DRSC16238] gave: firefly Hh reporter signal, replicate 1 = 1.42e5; firefly Hh reporter signal, replicate 2 = 90109; Renilla reference signal, replicate 1 = 5730; Renilla reference signal, replicate 2 = 3892.
Depletion of Dlish (GeneID 37014) [DRSC06016] gave: firefly Hh reporter signal, replicate 1 = 1.45e5; firefly Hh reporter signal, replicate 2 = 58465; Renilla reference signal, replicate 1 = 3765; Renilla reference signal, replicate 2 = 3943.
Depletion of Pex14 (GeneID 40294) [DRSC11754] resulted in: firefly Hh reporter signal, replicate 1 = 83977; firefly Hh reporter signal, replicate 2 = 1.09e5; Renilla reference signal, replicate 1 = 3810; Renilla reference signal, replicate 2 = 3818.
Depletion of CG14965 (GeneID 38388) [DRSC08424] gave: firefly Hh reporter signal, replicate 1 = 1.21e5; firefly Hh reporter signal, replicate 2 = 75757; Renilla reference signal, replicate 1 = 5456; Renilla reference signal, replicate 2 = 3168.
CG43759 (GeneID 32889) [DRSC19464] showed firefly Hh reporter signal, replicate 1 = 1.35e5; firefly Hh reporter signal, replicate 2 = 1.24e5; Renilla reference signal, replicate 1 = 3018; Renilla reference signal, replicate 2 = 2965.
Silencing of CG43759 (GeneID 32889) [DRSC19543] resulted in: firefly Hh reporter signal, replicate 1 = 74086 (active); firefly Hh reporter signal, replicate 2 = 42996; Renilla reference signal, replicate 1 = 7124; Renilla reference signal, replicate 2 = 1848.
After knock-down of Recs1 (GeneID 41724) [DRSC16545] the results were firefly Hh reporter signal, replicate 1 = 98227; firefly Hh reporter signal, replicate 2 = 84726; Renilla reference signal, replicate 1 = 2528; Renilla reference signal, replicate 2 = 2210.
Silencing of ich (GeneID 41069) [DRSC12715] resulted in: firefly Hh reporter signal, replicate 1 = 1.56e5; Renilla reference signal, replicate 1 = 2656.
After knock-down of ich (GeneID 41069) [DRSC14448], the screen gave firefly Hh reporter signal, replicate 1 = 90193; firefly Hh reporter signal, replicate 2 = 1.07e5; Renilla reference signal, replicate 1 = 3987; Renilla reference signal, replicate 2 = 2992.
With knock-down of CG17233 (GeneID 40220) [DRSC10259] the results were firefly Hh reporter signal, replicate 1 = 52184; firefly Hh reporter signal, replicate 2 = 64105; Renilla reference signal, replicate 1 = 2994; Renilla reference signal, replicate 2 = 3287.
Ir56c (GeneID 37251) [DRSC06544] showed firefly Hh reporter signal, replicate 1 = 74728; firefly Hh reporter signal, replicate 2 = 59659; Renilla reference signal, replicate 1 = 1627; Renilla reference signal, replicate 2 = 4631.
Lcp65Ag3 (GeneID 59159) [DRSC10345] gave firefly Hh reporter signal, replicate 1 = 75146; firefly Hh reporter signal, replicate 2 = 65872; Renilla reference signal, replicate 1 = 8390; Renilla reference signal, replicate 2 = 4648.
